Measured values taken from patent US20240415878A1, “Compositions and Methods for Modulating Mitochondrial Function” (Board of Regents, The University of Texas System, priority 2021, published 2024).
At least one structure is not confirmed: it was looked up by name or label, or the drawing left a doubt.

What was measured:
HIF-1α = HIF-1α stabilization in human kidney cell line (HK-2); type: cell-based; conditions: HK-2 treated with CoCl2, metabolites 6 hours
[1] = tested on: mitochondrial Mg^2+ uptake; assay: Metabolite screen for ER Mg2+ depletion and mitochondrial Mg2+ uptake, Mag-Green confocal imaging of hepatocytes; type: cell-based; conditions: primary murine hepatocytes
Text: Targeted Metabolite Screen Identifies Lactate as activator agonist for Mitochondrial Mg^2+ Uptake. To search for agonists that promote mitochondrial Mg^2+ ([Mg^2+]m) uptake, the inventors developed a cell-based confocal fluorescence imaging. As an initial feature, the inventors tested whether GPCR agonist-induced second messengers promote Mg^2+ dynamics. To discriminate intracellular Ca^2+ and Mg^2+ dynamics, MEFs were loaded with cell permeant Ca^2+ indicator, Fluo-4-AM or Mg^2+ indicator Mag green-AM followed by GPCR agonist, thrombin stimulation. […] It is established that intracellular Ca^2+ dynamics could be monitored using a wide range of fluorescent dyes or genetically encoded Ca^2+ indicators. […] To confirm that lactate-induced Mag-Green signals are indeed measured from mitochondrial compartment, hepatocytes were simultaneously loaded with mitochondrial marker Mito-tracker Red and Mag-Green-AM (FIG. 1C-1F). […] Since ATP is cell impermeable, citrate (5 mM) was applied and intracellular Mg^2+ mobilization monitored. […]
Mitochondrial Mg^2+ Transporter is Temperature Sensitive. […] To assess optimal concentration of lactate required to trigger Mg^2+ depletion from ER compartment and mitochondrial Mg^2+ uptake, both ER-depletion and mitochondrial Mg^2+ uptake was measured in hepatocytes at 37° C. […]

SMILES | HIF-1α destabilizing activity (HIF-1α) | ER Mag-Green signal depletion and mitochondrial Mg^2+ uptake [1]
O=C(O)CC(=O)C(=O)O [OAA, oxaloacetate] | do not possess such activity | –
CC(=O)C(=O)O [pyruvate] | – | did not induce mitochondrial Mg^2+ uptake
CCCCCCCCCCCCCCCC(=O)O [palmitate] | – | did not induce mitochondrial Mg^2+ uptake
